Laboratory results: article PMC5527284
Results are given in words; binding and its absence hold for the method and conditions named. A result given as binding can be weak or reduced; the word gives no strength. For part of these data: Binding seen in cells or lysates may run through a third protein.

Chains of the proteins cited; added tags and fusions are not shown. Lines headed by an entry give the natural chain unless they say otherwise; changes in a name come on top.
UniProt Q3TKT4: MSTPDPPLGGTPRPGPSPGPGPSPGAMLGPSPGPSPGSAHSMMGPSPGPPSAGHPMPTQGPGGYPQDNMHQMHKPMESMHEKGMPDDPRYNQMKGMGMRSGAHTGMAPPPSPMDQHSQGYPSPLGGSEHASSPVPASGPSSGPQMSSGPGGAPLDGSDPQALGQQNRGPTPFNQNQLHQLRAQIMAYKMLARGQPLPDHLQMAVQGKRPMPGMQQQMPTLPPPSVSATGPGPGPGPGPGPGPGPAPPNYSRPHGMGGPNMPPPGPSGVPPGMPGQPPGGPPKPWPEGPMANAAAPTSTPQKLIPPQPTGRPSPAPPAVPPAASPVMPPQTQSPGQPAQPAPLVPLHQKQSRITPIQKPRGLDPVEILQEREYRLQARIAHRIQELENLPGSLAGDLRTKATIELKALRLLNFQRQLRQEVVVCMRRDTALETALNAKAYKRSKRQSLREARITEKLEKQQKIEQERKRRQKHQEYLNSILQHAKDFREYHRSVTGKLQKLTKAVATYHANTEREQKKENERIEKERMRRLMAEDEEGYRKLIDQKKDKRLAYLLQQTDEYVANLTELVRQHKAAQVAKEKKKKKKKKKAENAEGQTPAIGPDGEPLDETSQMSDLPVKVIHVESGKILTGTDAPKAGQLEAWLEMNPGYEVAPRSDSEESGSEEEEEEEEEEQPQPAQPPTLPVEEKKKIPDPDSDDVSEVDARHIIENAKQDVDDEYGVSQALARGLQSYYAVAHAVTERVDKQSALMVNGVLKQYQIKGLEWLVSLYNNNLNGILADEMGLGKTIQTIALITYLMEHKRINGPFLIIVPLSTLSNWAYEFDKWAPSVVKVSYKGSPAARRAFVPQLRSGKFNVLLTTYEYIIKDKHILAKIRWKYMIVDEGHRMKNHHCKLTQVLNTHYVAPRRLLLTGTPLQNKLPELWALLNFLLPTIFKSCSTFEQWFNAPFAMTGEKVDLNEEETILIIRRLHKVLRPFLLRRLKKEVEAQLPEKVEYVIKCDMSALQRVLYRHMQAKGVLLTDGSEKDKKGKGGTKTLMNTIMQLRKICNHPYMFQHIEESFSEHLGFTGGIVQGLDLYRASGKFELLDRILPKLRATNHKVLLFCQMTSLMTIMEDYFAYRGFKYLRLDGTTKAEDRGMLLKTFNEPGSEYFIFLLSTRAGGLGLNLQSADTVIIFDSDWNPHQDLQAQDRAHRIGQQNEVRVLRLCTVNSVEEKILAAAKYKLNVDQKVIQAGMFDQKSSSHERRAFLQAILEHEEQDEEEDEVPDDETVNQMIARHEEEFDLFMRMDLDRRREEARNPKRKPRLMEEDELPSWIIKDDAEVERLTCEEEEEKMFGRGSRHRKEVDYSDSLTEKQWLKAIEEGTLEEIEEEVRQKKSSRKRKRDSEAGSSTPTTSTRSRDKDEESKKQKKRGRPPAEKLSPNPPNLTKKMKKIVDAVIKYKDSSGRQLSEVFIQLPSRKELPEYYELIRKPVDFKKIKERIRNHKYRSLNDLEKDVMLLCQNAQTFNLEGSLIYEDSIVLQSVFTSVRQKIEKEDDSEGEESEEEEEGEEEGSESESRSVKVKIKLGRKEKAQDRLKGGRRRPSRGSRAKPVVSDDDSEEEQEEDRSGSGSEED
UniProt Q6DIC0: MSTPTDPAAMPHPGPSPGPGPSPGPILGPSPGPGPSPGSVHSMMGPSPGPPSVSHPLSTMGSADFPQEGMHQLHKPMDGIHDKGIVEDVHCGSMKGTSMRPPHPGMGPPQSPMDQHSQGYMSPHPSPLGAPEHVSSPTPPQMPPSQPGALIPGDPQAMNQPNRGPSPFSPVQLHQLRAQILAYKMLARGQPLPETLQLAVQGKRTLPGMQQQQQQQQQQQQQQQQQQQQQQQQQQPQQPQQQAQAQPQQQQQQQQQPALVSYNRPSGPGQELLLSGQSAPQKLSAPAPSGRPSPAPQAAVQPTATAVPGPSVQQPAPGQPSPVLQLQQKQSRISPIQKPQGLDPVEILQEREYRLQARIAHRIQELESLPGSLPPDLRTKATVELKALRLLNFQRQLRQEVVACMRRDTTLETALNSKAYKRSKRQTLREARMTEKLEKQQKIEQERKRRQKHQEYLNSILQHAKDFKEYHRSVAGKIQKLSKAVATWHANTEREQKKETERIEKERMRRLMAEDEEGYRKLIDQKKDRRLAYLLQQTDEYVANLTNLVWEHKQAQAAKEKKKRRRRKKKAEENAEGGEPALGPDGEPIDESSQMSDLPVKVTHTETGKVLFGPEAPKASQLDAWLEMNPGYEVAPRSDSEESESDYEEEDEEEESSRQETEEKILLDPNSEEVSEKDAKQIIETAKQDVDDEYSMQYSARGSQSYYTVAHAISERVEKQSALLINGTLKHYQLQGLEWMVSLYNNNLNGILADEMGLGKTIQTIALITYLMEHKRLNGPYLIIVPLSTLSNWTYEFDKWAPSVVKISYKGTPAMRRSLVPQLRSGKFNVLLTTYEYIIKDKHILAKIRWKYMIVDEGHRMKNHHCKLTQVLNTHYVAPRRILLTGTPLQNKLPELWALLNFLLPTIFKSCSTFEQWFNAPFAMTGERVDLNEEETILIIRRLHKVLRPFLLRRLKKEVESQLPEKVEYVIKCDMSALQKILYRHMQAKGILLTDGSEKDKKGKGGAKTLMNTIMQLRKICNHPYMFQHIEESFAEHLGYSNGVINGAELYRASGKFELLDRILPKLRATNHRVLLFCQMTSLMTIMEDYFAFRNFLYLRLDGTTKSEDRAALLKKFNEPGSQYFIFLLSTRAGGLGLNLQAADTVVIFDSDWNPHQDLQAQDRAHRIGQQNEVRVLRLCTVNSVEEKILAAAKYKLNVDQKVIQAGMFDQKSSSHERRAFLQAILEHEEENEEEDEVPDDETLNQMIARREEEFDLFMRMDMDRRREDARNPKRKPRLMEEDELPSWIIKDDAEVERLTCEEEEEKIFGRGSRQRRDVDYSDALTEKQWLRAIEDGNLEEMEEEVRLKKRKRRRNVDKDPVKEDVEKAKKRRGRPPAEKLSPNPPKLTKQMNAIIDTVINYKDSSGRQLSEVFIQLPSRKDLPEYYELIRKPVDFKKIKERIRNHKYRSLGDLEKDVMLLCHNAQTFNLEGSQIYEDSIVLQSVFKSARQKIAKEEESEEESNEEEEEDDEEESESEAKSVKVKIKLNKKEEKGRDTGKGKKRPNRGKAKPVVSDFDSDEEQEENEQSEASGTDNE
UniProt P20065: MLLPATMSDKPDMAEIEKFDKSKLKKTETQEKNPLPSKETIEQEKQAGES

Assays:
[1] = target: BRG1 (Brahma-related gene 1) in mouse heart (mouse (endogenous in heart)) (UniProt Q3TKT4); test: proximity ligation; Duolink II in situ PLA on cryosections of mouse embryonic and post-MI adult hearts; anti-rabbit PLUS and anti-mouse MINUS probes
[2] = target: BRG1 (Brahma-related gene 1) in mouse heart (mouse (endogenous in heart)) (UniProt Q3TKT4); test: sequential ChIP (re-ChIP); formaldehyde-fixed chromatin of mouse hearts (E11.5; adult primed with Tβ4, day 4 post-MI); first ChIP eluted and re-immunoprecipitated with a second antibody; qPCR of Wt1 ECRs, fold enrichment over IgG
[3] = target: BRM (Brahma) in mouse heart (mouse (endogenous in heart)) (UniProt Q6DIC0); test: as above

Measured: binding

Thymosin β4 (Tβ4) in mouse heart (from UniProt P20065)
binds: [1] | [2] | [3]
